No constants are given. Whether binding was seen depends on the method and setting. For some assays here: Binding can be weak; no strength is given.
Columns and labels:
[1] = biological target: type V tartrate-resistant acid phosphatase (TRAP) protein, immobilised on CM5 sensor chip; assay: SPR, TRAP-functionalized surface
[2] = biological target: type V tartrate-resistant acid phosphatase (TRAP) protein, immobilised on CM5 sensor chip; assay: SPR, TRAP immobilised on a CM5 chip, peptide injected
[3] = biological target: type V tartrate-resistant acid phosphatase (TRAP) protein, immobilised on CM5 sensor chip; assay: SPR, TRAP-functionalized surface, peptide in solution (Table 1 series; KD cell printed N/A)
[4] = biological target: type V tartrate-resistant acid phosphatase (TRAP) protein, immobilised on CM5 sensor chip; assay: SPR, TRAP amine-coupled to CM5 chip, peptide in solution
[5] = biological target: type V tartrate-resistant acid phosphatase (TRAP) protein, immobilised on CM5 sensor chip; assay: SPR, TRAP-functionalized surface (n = 2)

Binder: TPLSYLKGLVTVG [TRAP-binding peptide (TBP), …]
- binding [1]: binds
- binding [2]: binds

Binder: VPVGTLSYLKLTG [scrambled control peptide (SCP), …]
- binding [3]: no binding
- binding [4]: no binding
- binding [5]: no binding

Reference: US20150374663A1
